Data as given in the supplement of paper PMC11006884.
The entries are a selection whose mix differs from that of the whole data set. The data scatter; read single values as rough.

The chains behind the UniProt entries cited, without tags or fusion partners. Where a name states a change or a piece, a line headed by the entry shows the natural chain unless it says otherwise.
UniProt Q6ZW49, whole entry: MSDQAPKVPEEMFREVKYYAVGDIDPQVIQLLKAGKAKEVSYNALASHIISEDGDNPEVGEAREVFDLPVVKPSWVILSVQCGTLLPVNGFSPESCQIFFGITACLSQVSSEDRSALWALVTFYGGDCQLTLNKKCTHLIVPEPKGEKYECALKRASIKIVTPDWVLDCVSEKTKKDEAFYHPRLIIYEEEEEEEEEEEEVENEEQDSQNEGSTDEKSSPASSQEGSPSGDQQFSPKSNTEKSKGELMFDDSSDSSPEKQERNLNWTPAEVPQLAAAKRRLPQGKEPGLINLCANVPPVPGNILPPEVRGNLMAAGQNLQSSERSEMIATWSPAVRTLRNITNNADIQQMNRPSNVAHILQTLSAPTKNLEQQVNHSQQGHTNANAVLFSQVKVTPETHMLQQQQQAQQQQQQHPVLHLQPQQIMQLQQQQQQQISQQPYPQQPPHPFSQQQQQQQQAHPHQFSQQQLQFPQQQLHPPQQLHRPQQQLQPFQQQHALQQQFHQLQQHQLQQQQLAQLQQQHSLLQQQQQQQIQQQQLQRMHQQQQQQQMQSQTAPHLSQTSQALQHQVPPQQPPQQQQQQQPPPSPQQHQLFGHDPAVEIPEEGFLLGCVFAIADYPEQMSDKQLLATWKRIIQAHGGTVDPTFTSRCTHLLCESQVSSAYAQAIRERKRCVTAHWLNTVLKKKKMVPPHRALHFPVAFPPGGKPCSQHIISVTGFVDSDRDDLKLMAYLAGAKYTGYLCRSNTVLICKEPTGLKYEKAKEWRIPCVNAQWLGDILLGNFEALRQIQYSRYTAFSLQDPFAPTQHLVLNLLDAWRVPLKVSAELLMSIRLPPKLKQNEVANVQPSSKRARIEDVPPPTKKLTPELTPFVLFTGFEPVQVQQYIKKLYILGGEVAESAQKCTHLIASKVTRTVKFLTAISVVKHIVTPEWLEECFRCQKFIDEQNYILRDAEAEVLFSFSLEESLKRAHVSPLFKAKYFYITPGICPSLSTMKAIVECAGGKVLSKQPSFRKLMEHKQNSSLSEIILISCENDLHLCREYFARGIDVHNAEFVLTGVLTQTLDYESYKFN
UniProt Q5JPH6: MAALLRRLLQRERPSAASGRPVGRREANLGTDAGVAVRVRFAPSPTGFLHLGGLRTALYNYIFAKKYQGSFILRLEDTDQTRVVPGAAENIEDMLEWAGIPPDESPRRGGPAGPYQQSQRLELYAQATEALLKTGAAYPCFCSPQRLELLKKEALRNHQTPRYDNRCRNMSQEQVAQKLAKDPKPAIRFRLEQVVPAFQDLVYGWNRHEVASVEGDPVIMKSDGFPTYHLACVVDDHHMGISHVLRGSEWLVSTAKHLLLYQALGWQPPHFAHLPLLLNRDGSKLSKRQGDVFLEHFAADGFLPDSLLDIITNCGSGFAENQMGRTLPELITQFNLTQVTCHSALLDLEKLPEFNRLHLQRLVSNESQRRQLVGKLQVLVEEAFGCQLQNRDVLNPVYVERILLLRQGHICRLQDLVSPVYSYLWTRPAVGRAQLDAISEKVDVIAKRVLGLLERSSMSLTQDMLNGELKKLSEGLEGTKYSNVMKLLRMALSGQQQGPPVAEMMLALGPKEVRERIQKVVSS
UniProt Q6P9B9, whole entry, looked up: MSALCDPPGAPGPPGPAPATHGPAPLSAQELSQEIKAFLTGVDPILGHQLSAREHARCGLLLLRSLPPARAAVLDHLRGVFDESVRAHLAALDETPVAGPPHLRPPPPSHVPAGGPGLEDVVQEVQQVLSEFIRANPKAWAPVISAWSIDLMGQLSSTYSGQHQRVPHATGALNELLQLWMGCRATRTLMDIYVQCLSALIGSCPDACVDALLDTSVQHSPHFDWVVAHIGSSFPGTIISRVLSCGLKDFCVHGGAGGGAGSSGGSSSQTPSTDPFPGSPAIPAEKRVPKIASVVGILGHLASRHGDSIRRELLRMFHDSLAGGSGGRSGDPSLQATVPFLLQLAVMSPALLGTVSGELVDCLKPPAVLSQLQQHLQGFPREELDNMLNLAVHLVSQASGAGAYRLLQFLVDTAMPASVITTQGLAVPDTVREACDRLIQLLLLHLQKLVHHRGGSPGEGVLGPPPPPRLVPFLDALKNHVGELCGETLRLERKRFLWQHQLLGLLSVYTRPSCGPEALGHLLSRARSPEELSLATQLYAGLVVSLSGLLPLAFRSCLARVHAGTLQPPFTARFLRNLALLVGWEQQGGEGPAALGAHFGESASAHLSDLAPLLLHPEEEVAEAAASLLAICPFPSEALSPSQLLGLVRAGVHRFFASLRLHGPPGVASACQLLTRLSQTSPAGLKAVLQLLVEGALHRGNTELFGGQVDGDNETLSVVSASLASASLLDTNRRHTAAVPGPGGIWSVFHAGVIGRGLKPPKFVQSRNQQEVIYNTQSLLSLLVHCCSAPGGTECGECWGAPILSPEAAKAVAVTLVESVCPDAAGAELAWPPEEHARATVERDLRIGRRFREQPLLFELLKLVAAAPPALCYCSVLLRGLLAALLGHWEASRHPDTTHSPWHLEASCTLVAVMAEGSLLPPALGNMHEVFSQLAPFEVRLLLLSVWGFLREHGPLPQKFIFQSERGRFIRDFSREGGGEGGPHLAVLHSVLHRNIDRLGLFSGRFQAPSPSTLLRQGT
UniProt Q6PJG6: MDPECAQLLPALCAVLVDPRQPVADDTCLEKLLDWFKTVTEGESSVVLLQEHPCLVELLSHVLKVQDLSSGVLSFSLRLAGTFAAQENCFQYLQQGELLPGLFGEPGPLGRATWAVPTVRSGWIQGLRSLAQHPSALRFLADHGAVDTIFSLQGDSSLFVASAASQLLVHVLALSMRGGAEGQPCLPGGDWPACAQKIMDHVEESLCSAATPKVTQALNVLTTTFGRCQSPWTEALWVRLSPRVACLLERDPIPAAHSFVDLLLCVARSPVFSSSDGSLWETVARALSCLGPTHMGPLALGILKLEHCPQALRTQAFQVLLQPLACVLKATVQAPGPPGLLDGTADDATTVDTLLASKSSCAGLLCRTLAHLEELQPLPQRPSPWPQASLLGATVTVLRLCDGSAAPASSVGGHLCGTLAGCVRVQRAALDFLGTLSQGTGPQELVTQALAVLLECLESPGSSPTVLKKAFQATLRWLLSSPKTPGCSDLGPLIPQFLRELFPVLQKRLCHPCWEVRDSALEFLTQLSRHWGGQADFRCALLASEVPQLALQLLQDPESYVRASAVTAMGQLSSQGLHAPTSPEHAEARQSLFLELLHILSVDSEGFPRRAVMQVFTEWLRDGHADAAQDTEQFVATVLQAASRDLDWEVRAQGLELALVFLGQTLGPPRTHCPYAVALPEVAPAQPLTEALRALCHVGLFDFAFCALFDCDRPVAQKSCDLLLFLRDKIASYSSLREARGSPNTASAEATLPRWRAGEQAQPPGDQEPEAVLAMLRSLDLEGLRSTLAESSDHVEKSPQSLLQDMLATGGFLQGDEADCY
UniProt Q6PL18: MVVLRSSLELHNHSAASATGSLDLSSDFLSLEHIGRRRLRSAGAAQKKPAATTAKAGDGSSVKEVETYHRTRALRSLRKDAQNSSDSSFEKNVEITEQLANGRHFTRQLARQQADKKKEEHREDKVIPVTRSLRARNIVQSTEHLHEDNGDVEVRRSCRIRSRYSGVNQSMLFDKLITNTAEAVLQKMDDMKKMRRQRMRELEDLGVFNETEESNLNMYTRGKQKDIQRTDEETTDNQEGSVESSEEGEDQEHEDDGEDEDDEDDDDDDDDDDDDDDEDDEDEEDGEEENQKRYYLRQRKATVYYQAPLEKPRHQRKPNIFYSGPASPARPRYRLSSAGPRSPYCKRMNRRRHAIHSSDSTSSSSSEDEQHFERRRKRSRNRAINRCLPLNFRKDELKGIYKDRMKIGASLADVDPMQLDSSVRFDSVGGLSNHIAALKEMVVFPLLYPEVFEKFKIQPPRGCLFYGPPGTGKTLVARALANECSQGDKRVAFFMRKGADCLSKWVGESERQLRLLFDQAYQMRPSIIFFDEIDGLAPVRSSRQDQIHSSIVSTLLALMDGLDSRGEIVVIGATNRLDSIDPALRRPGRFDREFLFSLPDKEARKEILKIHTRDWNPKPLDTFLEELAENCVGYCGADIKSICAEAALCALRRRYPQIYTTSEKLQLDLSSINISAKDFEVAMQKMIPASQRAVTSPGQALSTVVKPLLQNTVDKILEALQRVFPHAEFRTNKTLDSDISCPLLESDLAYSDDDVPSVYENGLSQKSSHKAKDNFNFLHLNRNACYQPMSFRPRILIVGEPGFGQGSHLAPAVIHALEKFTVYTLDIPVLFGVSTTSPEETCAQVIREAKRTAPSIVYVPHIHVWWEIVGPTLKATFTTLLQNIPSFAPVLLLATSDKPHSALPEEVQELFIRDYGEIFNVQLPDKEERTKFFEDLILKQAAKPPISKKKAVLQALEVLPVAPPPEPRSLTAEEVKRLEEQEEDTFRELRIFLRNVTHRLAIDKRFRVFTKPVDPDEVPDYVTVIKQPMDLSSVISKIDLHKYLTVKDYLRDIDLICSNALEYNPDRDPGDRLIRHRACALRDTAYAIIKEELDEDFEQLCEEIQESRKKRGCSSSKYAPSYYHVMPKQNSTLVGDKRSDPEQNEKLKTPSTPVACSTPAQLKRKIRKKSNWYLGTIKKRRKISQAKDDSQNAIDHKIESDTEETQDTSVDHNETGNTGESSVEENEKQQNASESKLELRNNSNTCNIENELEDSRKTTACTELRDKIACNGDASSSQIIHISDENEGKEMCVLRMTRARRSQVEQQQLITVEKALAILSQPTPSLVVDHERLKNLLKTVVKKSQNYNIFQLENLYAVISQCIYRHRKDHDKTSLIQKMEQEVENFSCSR
UniProt Q5GLZ8: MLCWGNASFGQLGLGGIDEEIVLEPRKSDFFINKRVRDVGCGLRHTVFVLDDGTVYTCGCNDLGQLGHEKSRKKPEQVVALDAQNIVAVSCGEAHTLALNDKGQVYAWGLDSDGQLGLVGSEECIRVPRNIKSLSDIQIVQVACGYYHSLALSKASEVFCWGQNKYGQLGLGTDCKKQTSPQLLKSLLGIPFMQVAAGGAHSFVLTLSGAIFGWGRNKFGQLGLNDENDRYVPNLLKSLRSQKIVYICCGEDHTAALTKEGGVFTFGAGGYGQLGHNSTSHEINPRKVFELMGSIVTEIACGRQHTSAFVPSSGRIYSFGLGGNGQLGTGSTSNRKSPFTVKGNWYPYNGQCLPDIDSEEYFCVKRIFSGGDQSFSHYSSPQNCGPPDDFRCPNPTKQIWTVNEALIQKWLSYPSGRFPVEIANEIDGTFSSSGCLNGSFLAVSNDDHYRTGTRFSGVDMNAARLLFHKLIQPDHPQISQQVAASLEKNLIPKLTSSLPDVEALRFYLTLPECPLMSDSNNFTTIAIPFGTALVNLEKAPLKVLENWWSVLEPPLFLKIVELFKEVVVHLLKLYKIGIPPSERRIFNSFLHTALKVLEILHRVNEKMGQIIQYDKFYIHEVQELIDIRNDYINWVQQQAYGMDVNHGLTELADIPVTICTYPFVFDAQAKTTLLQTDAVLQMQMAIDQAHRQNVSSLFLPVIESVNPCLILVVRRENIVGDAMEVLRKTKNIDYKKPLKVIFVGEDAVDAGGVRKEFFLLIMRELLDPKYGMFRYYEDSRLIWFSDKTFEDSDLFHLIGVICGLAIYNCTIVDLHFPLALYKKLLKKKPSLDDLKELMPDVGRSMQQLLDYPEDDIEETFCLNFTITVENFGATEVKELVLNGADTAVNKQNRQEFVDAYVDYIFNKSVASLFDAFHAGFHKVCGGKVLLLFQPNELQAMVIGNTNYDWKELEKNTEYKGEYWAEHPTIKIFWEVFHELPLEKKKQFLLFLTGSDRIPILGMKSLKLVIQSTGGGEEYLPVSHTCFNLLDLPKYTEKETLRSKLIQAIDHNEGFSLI
UniProt Q6PI26: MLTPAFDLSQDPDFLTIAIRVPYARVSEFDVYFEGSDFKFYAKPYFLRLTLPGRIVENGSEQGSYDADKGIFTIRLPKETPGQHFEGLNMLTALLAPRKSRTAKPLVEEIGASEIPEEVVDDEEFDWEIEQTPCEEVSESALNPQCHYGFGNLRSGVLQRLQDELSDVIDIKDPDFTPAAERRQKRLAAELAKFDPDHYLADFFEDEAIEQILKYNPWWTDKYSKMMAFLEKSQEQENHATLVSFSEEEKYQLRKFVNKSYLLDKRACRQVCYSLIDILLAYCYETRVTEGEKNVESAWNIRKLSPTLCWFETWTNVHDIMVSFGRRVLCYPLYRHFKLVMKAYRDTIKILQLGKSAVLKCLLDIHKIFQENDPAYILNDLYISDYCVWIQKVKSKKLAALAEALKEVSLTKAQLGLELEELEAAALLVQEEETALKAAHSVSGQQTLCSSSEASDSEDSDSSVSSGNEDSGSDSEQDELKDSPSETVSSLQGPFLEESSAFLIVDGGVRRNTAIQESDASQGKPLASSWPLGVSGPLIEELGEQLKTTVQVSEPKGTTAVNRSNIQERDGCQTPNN

Compound: COC(=O)/C=C/c1ccccc1 [methyl cinnamate]
Assay: log2 ratio of iodoacetamide-alkyne labeling of the cysteine site, DMSO over compound (competition); higher = stronger covalent engagement of the cysteine by the compound, active = 1 or more
Details: 500 µM; treatment time 1 h; system: HEK293T cell lysate
How it was run: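 Reporter intensities give each cysteine's log2 competition ratio as the mean of control channels over the mean of compound channels. The samples were HEK293T lysate (2 mg/mL) given vehicle or electrophile (500 µM, 1 h, ambient temperature), then iodoacetamide alkyne (1 h), followed by click coupling to sCIP-TMT reagents, pooling, trypsin digestion overnight at 37 °C, streptavidin enrichment, acid elution, Orbitrap Eclipse LC-MS/MS with FAIMS and FragPipe quantification. Duplicate channels and three replicates were run, and cysteines quantified in only one replicate were discarded.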

log2 ratio of iodoacetamide-alkyne labeling, inactive:
ZC3H14 C540 (UniProt Q6PJT7) 0.313, SARM1 C311 (UniProt Q6SZW1) 0.286, PAXIP1 C169 (UniProt Q6ZW49) 0.202, TMEM201 C626 (UniProt Q5SNT2) 0.346, EARS2 C341 (UniProt Q5JPH6) 0.014, UBAP2 C208 (UniProt Q5T6F2) -0.0507, LARP1 C864 (UniProt Q6PKG0) 0.216, INTS5 C514 (UniProt Q6P9B9) -0.227, CTR9 C511 (UniProt Q6PD62) 0.0056, UniProt Q6PJG6_C539 -0.0842, PITRM1 C556 (UniProt Q5JRX3) 0.264, ANKRD54 C137 (UniProt Q6NXT1) 0.18, ATAD2 C635 (UniProt Q6PL18) 0.227, HERC4 C60 (UniProt Q5GLZ8) 0.221, USP34 C741 (UniProt Q70CQ2) 0.0998, UBR4 C1458 (UniProt Q5T4S7) 0.181, SHQ1 C572 (UniProt Q6PI26) 0.264
